A short description of this assay: qHTS Assay for Lipid Storage Modulators in Drosophila S3 Cells.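 As to cell number change: cells counted by Cell Tracker Red CMTPX staining in the red channel.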 The conditions noted are these: BODIPY lipid droplet fluorescence, 18-24 h; for cell number change: measured here: cell count max response, cells fed with added oleic acid. In a few lines:
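Laser-scanning cytometry quantifies lipid droplet accumulation (500–530 nm total intensity; droplet/cell object ratio) in oleic acid-fed (400 uM added) Drosophila S3 cells treated with a concentration series. 20 uM Triacsin C defined 100% inhibition.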

Where [1] appears, read: measured here: lipid fluorescence (Fed channel) AC50, cells fed with added oleic acid.
[2] abbreviates: measured here: cell number channel AC50, cells fed with added oleic acid.

Some of the results follow. The main result of the screen is listed elsewhere. These columns were measured beside it and carry no call. Most of these compounds were active or inconclusive in the main read-out, so they are no random draw. Words in brackets tell the shape of the fitted curve; partial curves, single points and poor fits give uncertain potencies.

Experimental findings from PubChem BioAssay AID2685 (National Center for Advancing Translational Sciences (NCATS), 2010) are described below.

Usually AC50 stands for the concentration at which the activity in the assay is half-maximal. Low values mean activity at low concentration, high ones activity only at high concentration. Take `O=C(O)C1C2CCCCC2=C2CCCCC2C1C(=O)O` (centres undefined): the cell number change was -11.9%. For the same compound, under setting [1], the AC50 was 0.146 µM [falling, full curve]. As for `Cc1ccc(-c2cc(C(=O)NN=C3CCCC3)c3ccccc3n2)cc1`, the cell number change stood at 107%. For the same compound, the AC50 under setting [2] was 29.1 µM [rising, single point]. Also, the AC50 under setting [1] was 29.1 µM [rising, single point]. `CCNC(=S)NNC(=O)c1cc(-c2ccc(OCC)cc2)nc2ccccc12`: the cell number change amounted to 9.33%. In addition, the AC50 under setting [1] was 0.82 µM [rising, full curve, poor fit]. For `COc1cc2c(cc1OC)CN(C(=O)CSc1nc3[nH]ncc3c(=O)n1-c1ccccc1)CC2`, the cell number change was determined as 40.1%. Also, the AC50 under setting [2] was 6.51 µM [rising, partial curve, poor fit]. Further, under setting [1], the half-maximal activity concentration (AC50) was 2.91 µM [rising, single point].

In the case of `O=C(Nc1ccc(NC(=O)c2cccs2)cc1Cl)c1ccco1`, the cell number change is -0.706%. In the case of `Cc1sc2ncn(CC(=O)NCCCC(=O)N(C)Cc3ccccc3)c(=O)c2c1C`, the cell number change is 10%. For the same compound, the AC50 under setting [1] was 29.1 µM [rising, single point].

With `Cc1ccc2c(COC(=O)c3cnc(C)cn3)cc(=O)oc2c1`, the cell number change was found to be 2.07%. Regarding `CSc1ccc(CSCC(=O)N2CCN(S(=O)(=O)c3ccc(C)cc3C)CC2)cc1`, the cell number change was -9.71%. Moreover, under setting [1], the AC50 was 4.61 µM [falling, partial curve].

Consider `O=C(Nc1cccc(Br)c1)c1cc2ccccc2o1`, for which the cell number change was -33.9%. Under setting [2], the AC50 is 23.1 µM [falling, single point]. Further, the concentration at half-maximal activity (AC50) under setting [1] is 20.6 µM [falling, partial curve, poor fit]. Regarding `COc1ccc(CNC(=O)c2ccc(N3CCOCC3)c([N+](=O)[O-])c2)cc1`, the cell number change came to 26.2%. Besides, the AC50 under setting [1] was 0.00651 µM [falling, full curve, poor fit].

Consider `CCOC(=O)c1c(S(=O)(=O)NCC(=O)Nc2cccc(C)c2C)c(C)n(C)c1C`, for which the cell number change was found to be 8.25%.

Consider `Cc1cccc(N2CCN(C(=S)NCc3ccco3)CC2)c1C`, for which the cell number change turned out to be 26.6%. Besides, the AC50 under setting [1] was 14.6 µM [rising, single point].

Regarding `CCCCC1CN2CCc3c([nH]c4ccccc34)C2(C)C1` (centres undefined), the cell number change is 9.39%. Moreover, under setting [1], the AC50 is 23.1 µM [falling, single point]. For the compound `O=C(CNS(=O)(=O)c1ccc2ccccc2c1)NCCc1ccccn1`, the concentration at half-maximal activity (AC50) under setting [2] was 0.146 µM [rising, single point] and the AC50 under setting [1] is 0.13 µM [rising, single point]. Regarding `CN(CCCNC(=O)Cn1c(=O)c2cccn2c2ccccc21)Cc1ccccc1`, the cell number change was -19.2%. Moreover, the AC50 under setting [1] was 1.84 µM [rising, partial curve, poor fit]. In the case of `COc1ccc(C(CC(=O)Nc2ccccn2)N2Cc3ccccc3C2=O)cc1` (centres undefined), the cell number change was found to be 20.4%. Besides, the AC50 under setting [1] was 23.1 µM [falling, single point]. In the case of `COc1c(F)c(F)c(C(=O)O)c(Nc2ccccc2C)c1F`, the cell number change was -23.1%. In the case of `CCOC(=O)c1c(-c2ccc(C)o2)csc1NC(=O)CN1CCOCC1`, the half-maximal activity concentration (AC50) by setting is: under setting [2], 0.461 µM [rising, single point]; under setting [1], 1.16 µM [rising, partial curve]. With `O=C(NCC(=O)N(c1ccccc1)C(C(=O)NC1CCCCC1)c1ccncc1)c1ccco1` (centres undefined), the cell number change was -21.3%. Besides, the concentration at half-maximal activity (AC50) under setting [2] is 0.164 µM [falling, full curve, poor fit]. Turning to `Nc1ccccc1SC1CC(=O)N(c2ccc3c(c2)OCO3)C1=O` (centres undefined), the cell number change came out at 19.9%. Moreover, the AC50 under setting [1] is 1.16 µM [rising, full curve]. As for `CC(C)C1C(C#N)=C(N)Oc2n[nH]c(-c3ccc4ccccc4c3)c21` (centres undefined), the cell number change is -58.6%. In addition, the AC50 under setting [1] is 6.51 µM [rising, partial curve].

As to `CC(/C=C1\SC(=S)N(NS(=O)(=O)c2ccccc2)C1=O)=C\c1ccccc1`, the cell number change is -8.43%.

As for `O=C(CN1CCN(S(=O)(=O)c2cc(Cl)ccc2Cl)CC1)c1ccc(O)c(O)c1`, the cell number change is -37.5%. Also, the AC50 under setting [2] is 13 µM [falling, single point]. Moreover, under setting [1], the AC50 is 29.1 µM [falling, single point]. On to `COc1ccc(C(CNC(=O)c2cc(S(=O)(=O)N3CCCC3)ccc2Cl)N2CCCC2)cc1` (centres undefined), for which the cell number change was determined as 26.7%. The AC50 under setting [1] was 29.1 µM [rising, single point]. Turning to `CCC(=O)c1ccc(OCC(O)CNC2CCCC2)cc1` (centres undefined), the cell number change was found to be 5.57%. On the same count and under the same terms, the same measure for `Cc1cccc(C(=O)NCCCNC(=O)c2cccnc2)c1`: 19.6%; for `CCN(CC(=O)Nc1c(F)cccc1F)C(=O)C1CCC1`: -12.9%. On the same count and under the same terms, the same measure for `CCc1cc(-c2n[nH]c(=S)n2-c2ccccc2C)cs1`: -21%.

Regarding `COc1cc(OC)c(OC)cc1/C=C(\C#N)C(=O)NCc1cccs1`, the cell number change is -11.2%. Further, under setting [1], the AC50 is 0.00461 µM [falling, full curve, poor fit]. Take `Cc1cccc(Nc2nnc(SCC(=O)NC(=O)CN3CCCC3=O)s2)c1`: the cell number change was -22.9%. On to `COc1ccc(/C=C/c2nc(S(=O)(=O)c3ccccc3)c(N(C)C)o2)cc1OC`, for which the cell number change was -10.5%. Also, the AC50 under setting [2] was 0.731 µM [rising, full curve]. Turning to `O=C(NCCCn1ccnc1)c1cc(Cl)cc(Cl)c1`, the cell number change was -10.9%. Besides, the AC50 under setting [2] was 0.058 µM [falling, full curve, poor fit]. In the case of `O=C(NC1CCCCC1)C1CCN(c2nccs2)CC1`, the cell number change came to 14%. Besides, the AC50 under setting [1] was 2.59 µM [rising, full curve, poor fit]. As for `COC(=O)c1ccc2c(c1)C(C)(C)C(/C=C/c1ccccc1O)=[N+]2C`, the cell number change is -1.89%. For the same compound, the AC50 under setting [2] is 5.8 µM [falling, single point]. In addition, the AC50 under setting [1] is 0.58 µM [falling, single point].

As for `O=C(Cc1ccccc1)NCC(=O)Nc1cccc(Cl)c1`, the cell number change came to 12.4%. Turning to `Cc1ccc(C2(C)NC(=O)N(CC(=O)NC(=O)NC(C)C)C2=O)cc1` (centres undefined), the cell number change is 33.3%. Also, the AC50 under setting [2] was 29.1 µM [rising, single point]. `CC(C)S(=O)(=O)c1csc(NC(=O)Nc2cc(Cl)ccc2Cl)c1Cl`: the cell number change was -51.5%. Further, the concentration at half-maximal activity (AC50) under setting [2] was 1.46 µM [falling, partial curve]. The concentration at half-maximal activity (AC50) under setting [1] is 29.1 µM [falling, single point]. Consider `COC(=O)c1ccc(COC(=O)C(NC(=O)Cc2ccccc2)C(C)C)cc1` (centres undefined), for which the cell number change turned out to be 43.5%. For the same compound, the AC50 under setting [2] is 29.1 µM [rising, single point]. Take `CCN(CC)S(=O)(=O)c1ccc(C(=O)NCCN(C)C)cc1`: under setting [2], the AC50 is 6.51 µM [falling, single point]. Take `CCOc1ccc(C(=O)Nc2nnn(CC)n2)cc1`: the cell number change turned out to be 2.68%. Moreover, the half-maximal activity concentration (AC50) under setting [1] is 0.082 µM [falling, full curve, poor fit].
